Measurements reported in PubChem BioAssay AID504793 (Drosophila RNAi Screening Center, 2011).
Purpose: 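Whole-genome screen for parts of the DNA damage checkpoint at G2/M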 (primary screen). System: Drosophila S2R+ cells. Knock-down reagent: long dsRNA against Drosophila genes, about 0.25 µg dsRNA per well. Duration: 4 days of dsRNA, then 4 hours of drug before read-out. Challenge: doxorubicin 0.5 µM for 4 hours to cause double-strand breaks, in cells also given a low, harmless dose of dsRNA against nbs to sensitise the assay. Measurement: 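Per-well count of mitotic cells stained for phospho-histone H3 after doxorubicin exposure, used as mitotic index; counts are raw and not normalised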. Scale: mitotic cells: higher = more cells in mitosis, weaker G2 arrest. Rule for the call: 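a call needs confirmation in secondary tests, with other dsRNAs and a check of mitotic timing without damage, not just a high primary count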. Calls: active = confirmed in follow-up tests; inactive = not confirmed.
The deposit covers about 23,000 reagents; shown is an unselected part of those with a known target gene and a result. Over the whole deposit, 62 (0.27%) were called active. 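Calls come from follow-up tests whose scores are not deposited, so confirmed genes may have low counts here; counts are not normalised per plate.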 Raw values are not corrected between plates. A number with no mark means an inactive call.

| Gene | dsRNA | mitotic cells, replicate 1 | mitotic cells, replicate 2 |
| --- | --- | --- | --- |
| side-IV | DRSC14833 | 5 | – |
| CG7058 | DRSC20021 | 2 | – |
| CG7058 | DRSC25937 | 3 | – |
| Argk1 | DRSC09668 | 4 | – |
| Argk1 | DRSC10460 | 4 | – |
| Argk1 | DRSC21558 | 12 | – |
| Argk1 | DRSC22665 | 2 | – |
| CG32461 | DRSC11594 | 25 | – |
| fit | DRSC15280 | 10 | – |
| CG32756 | DRSC23271 | 9 | – |
| CG32756 | DRSC25978 | 8 | – |
| RpL9 | DRSC03418 | 5 | – |
| Acer | DRSC01852 | 6 | – |
| NTPase | DRSC00761 | 4 | – |
| NTPase | DRSC26233 | 7 | – |
| Rab2 | DRSC05017 | 5 | – |
| Rab2 | DRSC26810 | 10 | – |
| CG7778 | DRSC03067 | 5 | – |
| CG7778 | DRSC27313 | 5 | – |
| Aven | DRSC19693 | 2 | – |
| Ccp84Ab | DRSC12587 | 3 | – |
| Ccp84Ab | DRSC25096 | 8 | – |
| CG6553 | DRSC07002 | 5 | – |
| Mhcl | DRSC13130 | 5 | – |
| Mhcl | DRSC14216 | 1 | – |
| Mhcl | DRSC16753 | 10 | – |
| PpD5 | DRSC04641 | 4 | – |
| PpD5 | DRSC23312 | 9 | – |
| CG15452 | DRSC20523 | 4 | – |
| MED22 | DRSC18175 | 15 | – |
| Srrm234 | DRSC07955 | 19 | – |
| Srrm234 | DRSC08606 | 7 | – |
| Cep290 | DRSC08359 | 8 | – |
| Cep290 | DRSC29987 | 3 | – |
| CG6178 | DRSC15984 | 9 | – |
| CG1924 | DRSC19823 | 8 | – |
| CG1924 | DRSC24870 | 3 | – |
| CG31680 | DRSC21878 | 9 | – |
| CG8668 | DRSC03101 | 2 | – |
| CG8668 | DRSC24942 | 1 | – |
| CG9568 | DRSC03265 | 1 | 14 |
| ppl | DRSC11899 | 9 | – |
| ppl | DRSC27839 | 6 | – |
| Aladin | DRSC18121 | 8 | – |
| Aladin | DRSC29497 | 3 | – |
